From patent US20250163138A1 (Alexion, published 2025)
Substitutions are numbered along the chain they refer to. These are yes or no findings as the source states them, for the method shown. Some binding calls cover weakened binding; strength is not graded here.

The chains behind the UniProt entries cited, without tags or fusion partners. Residues count along the entry.
UniProt P01031, residues 19-1676: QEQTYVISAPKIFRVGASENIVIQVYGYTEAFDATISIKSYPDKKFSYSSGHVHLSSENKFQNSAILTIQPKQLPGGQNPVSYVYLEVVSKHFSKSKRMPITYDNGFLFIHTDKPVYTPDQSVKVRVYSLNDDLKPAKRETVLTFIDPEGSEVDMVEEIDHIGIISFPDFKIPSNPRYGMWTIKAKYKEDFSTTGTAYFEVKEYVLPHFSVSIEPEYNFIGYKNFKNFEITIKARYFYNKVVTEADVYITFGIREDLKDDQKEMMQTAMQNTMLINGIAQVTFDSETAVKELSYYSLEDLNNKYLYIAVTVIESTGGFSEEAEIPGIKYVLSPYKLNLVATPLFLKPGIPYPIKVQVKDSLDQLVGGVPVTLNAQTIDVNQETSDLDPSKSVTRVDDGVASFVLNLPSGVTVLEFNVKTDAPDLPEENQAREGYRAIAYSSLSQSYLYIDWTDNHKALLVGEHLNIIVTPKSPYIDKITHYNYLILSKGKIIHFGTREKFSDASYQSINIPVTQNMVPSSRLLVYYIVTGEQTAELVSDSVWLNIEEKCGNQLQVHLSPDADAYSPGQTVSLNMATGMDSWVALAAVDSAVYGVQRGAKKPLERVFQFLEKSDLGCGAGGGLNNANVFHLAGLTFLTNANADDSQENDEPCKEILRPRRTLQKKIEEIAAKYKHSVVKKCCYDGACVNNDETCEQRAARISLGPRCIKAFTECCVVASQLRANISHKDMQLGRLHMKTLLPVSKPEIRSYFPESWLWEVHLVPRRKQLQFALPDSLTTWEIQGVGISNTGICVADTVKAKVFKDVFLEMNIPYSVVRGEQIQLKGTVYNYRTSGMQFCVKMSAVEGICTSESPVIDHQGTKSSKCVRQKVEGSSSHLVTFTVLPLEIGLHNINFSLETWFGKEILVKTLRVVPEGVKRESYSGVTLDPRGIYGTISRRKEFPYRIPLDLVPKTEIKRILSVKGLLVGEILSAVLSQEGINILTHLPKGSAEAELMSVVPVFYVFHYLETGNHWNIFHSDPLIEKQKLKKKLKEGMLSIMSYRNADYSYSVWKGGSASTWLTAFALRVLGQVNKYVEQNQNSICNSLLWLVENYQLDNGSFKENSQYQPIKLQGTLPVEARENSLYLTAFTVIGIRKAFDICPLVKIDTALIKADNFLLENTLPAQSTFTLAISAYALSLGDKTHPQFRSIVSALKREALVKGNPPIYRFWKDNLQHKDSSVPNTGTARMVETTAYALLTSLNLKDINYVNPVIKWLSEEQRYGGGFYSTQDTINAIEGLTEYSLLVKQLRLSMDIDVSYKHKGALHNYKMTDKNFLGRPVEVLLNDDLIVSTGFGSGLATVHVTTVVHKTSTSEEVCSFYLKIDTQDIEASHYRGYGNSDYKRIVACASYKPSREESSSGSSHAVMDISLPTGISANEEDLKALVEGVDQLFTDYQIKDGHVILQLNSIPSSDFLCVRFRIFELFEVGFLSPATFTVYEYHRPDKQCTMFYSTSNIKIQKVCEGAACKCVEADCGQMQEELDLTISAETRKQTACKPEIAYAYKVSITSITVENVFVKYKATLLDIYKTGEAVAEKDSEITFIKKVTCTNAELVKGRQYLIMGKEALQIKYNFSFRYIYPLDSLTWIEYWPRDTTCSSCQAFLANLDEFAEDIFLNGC

B1: LCP0299 (VHH, not shown: small tags and cut ends)
VHH: EVQLVESGGGLVQAGGSLRLSCGASGRISDINVMGWYRQAPGKQREMVADIDIRGYTNYADSVKGRFTVSRDNAETMYLEMNSLKPEDTAVYRCNALTSRDWGTGKYVYWGQGTQVTVSS
B2: LCP0311 (VHH, not shown: small tags and cut ends)
VHH: EVQLVESGGGMVQPGGSLRLSCVVSGASGNIDFVTVGWHRQAPGKHREMVAVITGDGTRNYRDSVKGRFSISRDNAKNTIYLQMNSLKPEDTAVYYCYMSNPISSWGQGTQVTVSS
B3: LCP0304 (VHH, not shown: small tags and cut ends)
VHH: EVQLVESGGGLVQVGDSMRLSCAVFGNIFTRDPVMWFRQPPGKQREWVATITPSGFANYADSVKGRFTISRYAANNTVHLQMNSLKPEDTGVYFCNFGTYWGQGTQVTVSS
B4: LCP0301 (VHH, not shown: small tags and cut ends)
VHH: EVQLVESGGGVVRAGGSLKLSCTAAGTDINIVTVGWHRQAPGKHRELVATIVGSGSRTNYADSVKGRFTISRDNPKNTVYLQMNSLKPEDTAVYYCYATSIGWGQGTQVTVSS
B5: LCP0098 (VHH, not shown: small tags and cut ends)
VHH: EVQLVESGGDLVQAGGSLRLSCVASRSISSAMNWYRQPPGKQRELVALITRGFNTNYADSVKGRFTISRDNAKNTVYLQMNSLKPEDTGVYYCNSLNYWGQGTQVTVSS
B6: LCP0152 (VHH, not shown: small tags and cut ends)
VHH: EVQLVESGGGLEQAGGSLRLSCTASGGTDSIYQMGWFRQTPGKEREFVAAINWNYGGAYYPDSVKGRFTISRDKAKNIGFLQMNSLKPEDTAVYYCATSQTSVDAFSVPITTARRYQYWGQGTQVTVSS
B7: LCP0111 (VHH, not shown: small tags and cut ends)
VHH: EVQLVESGGGLVQPGGSLRLSCAASGFPFSLYDMGWYRQAPEKQRESVAIITQSGSTDYADSVKGRFTISRDNAKNTLYLQMNSLKPEDTAVYYCRLVGVTWGQGTQVTVSS
B8: LCP0089 (VHH, not shown: small tags and cut ends)
VHH: EVQLVESGGGLVQAGGSLRLSCVVSGRAIDRNAMGWFRQAPGKERESVAAISASSGNTYYSDSVTGRFTISRDNTKNTVYLQMNSLKPEDTAVYYCAAGSRGSWYLFDRREYDYWGQGTQVTVSS
B9: LCP0300 (VHH, not shown: small tags and cut ends)
VHH: EVQLVESGGDLVQVGGSLRLSCAFPGSMSSRNSVNWYRQPPGKQREWVATISVSGFTQYADSAKGRFTISRDSAKNTVHLQMNSLKPEDTGVYYCNYMDYWGQGTQVTVSS
B10: LCP0112 (VHH, not shown: small tags and cut ends)
VHH: EVQLVESGGGLVQAGGSLTLSCAASGRTFSSYGIGWFRQAPGKEREFVAAISRTGQTTHYADSIRFTISRDNAKNTVYLQMNSLKPEDTAVYYCAARTGGPIYGSEYHYWGQGTQVTVSS
B11: LCP0306 (VHH, not shown: small tags and cut ends)
VHH: EVQLVESGGGLVQAGGSLRLSCAASKGAFNINVMAWYRQAPGKQRELVARVALGGTTDYADSVKGRFTISRNNAQDTVYLQMNSLKPEDTAVYYCNVLLDRGVRGSYAYWGQGTQVTVSS
B12: LCP0100 (VHH, not shown: small tags and cut ends)
VHH: EVQLVESGGGLVQAGGSLRLSCAASGRTDSMWSMGWFRQAPGQEREFVAAISWSVGTYYEDSVKGRFTLSRDDDKDTAYLEMSDLKLEDTADYYCAASTRHGTNLVLPRDYDYWGQGTQVTVSS
B13: LCP0303 (VHH, not shown: small tags and cut ends)
VHH: EVQLVESGGGSVQAGGSLRLTCTASGNVRSIFTMAWYRQAPGKQRELVASAAKGGDTYYADSAKGRFTISRDDAKAIVSLQMNSLKPEDTAVYYCKTDGRPWFSEDYWGQGTQVTVSS
B14: LCP0104 (VHH, not shown: small tags and cut ends)
VHH: EVQLVESGGGLVQAGDSLRLSCAASGRPFSSYTMGWFRQAPGKERDFVATISWSGGIKYYADSVEGRFSISRDNAKNMVYLQMNSLKPEDTAVYYCAATELRTWSRQTFEYDYWGQGTQVTVSS
B15: LCP0138 (VHH, not shown: small tags and cut ends)
VHH: EVQLVESGGGSVPAGGSLRLSCAAFGFTFDNYAIAWFRQAPGKEREGVSCLSTNDGETYYADSVKGRFTISSDHAKNTVYLQMDSLRPEDTAVYYCAAAEGSWCHKYEYDYWGQGTQVTVSS
B16: LCP0314 (VHH, not shown: small tags and cut ends)
VHH: EVQLVESGGGLVQAGGSLRLSCAASGSISSVNTMGWYRQAPGKQRELVAFITSGDDTNYADSMKGRFTISRDNAKNTLYLQMNSLKPEDTAVYYCVATLGRSSSGTYTYWGQGTQVTVSS
B17: LCP0312 (VHH, not shown: small tags and cut ends)
VHH: EVQLVESGGGLVQAGGSRRLSCAVSGRTLSSFGMGWFRQAPEKPREFVAAITWGQGGTFYADSVKGRFTISRDIVKNTVYLQMNDLKPDDTGLYFCVSAPHFHEAFPSRPPAYAYWGQGTQVTVSS
B18: LCP0310 (VHH, not shown: small tags and cut ends)
VHH: EVQLVESGGGLVQAGGSLRLSCVASGSAFYVGPMAWYRQAPGKERESVASITKGGITNYADSVKGRFTISRDNAKNTVYLQMNSLKPEDTDVYVCNARVKLQEDRLFRDYWGQGTQVTVSS
B19: LCP0145 (VHH, not shown: small tags and cut ends)
VHH: EVQLVESGGGLVQAGGSLRLSCVASEDAFKTDTLGWFRQAPGEEREFVAAFVWAGGPFYADSVKGRFTISMDEDRNTVYLQMNSLKPEDTGVYYCAASLSRLRVGEITPRHMNYWGQGTQVTVSS
B20: LCP0316 (VHH, not shown: small tags and cut ends)
VHH: EVQLVESGGGLVQAGGSLRLSCAASLRTLDNYGVGWFRQTPGREREFVSAVSWNGDRTYYQDSVKGRFTISREYAKNTVYLQMDSLKPEDTAVYYCAVNMYGSTFPGLSVESHYDYWGQGTQVTVSS
B21: LCP0090 (VHH, not shown: small tags and cut ends)
VHH: EVQLVESGGGLVQAGGSLRLTCTASETSFDINVMGWYRQAPGKQRELVAIITASGNTEYADSAKGRFTISRDNTKNTVAMQMNNLKPDDTAVYYCYVLLSGAVSGVYAHWGQGTQVTVSS
B22: LCP0132 (VHH, not shown: small tags and cut ends)
VHH: EVQLVESGGGLVQPGGSLRLSCEASGISLNDYNMGWFRQAPGKDREIVAALSRRSHGIYQSDSVKYRFSISRDNTKNMVSLQMDSLRPEDTAVYYCAADGDPYFTGRDMNPEYWGQGTQVTVSS
B23: LCP0081 (VHH, not shown: small tags and cut ends)
VHH: EVQLVESGGGLVQTGGSLRLSCAASTSGSDFSGKKMAWYRQAPGNGREFVAIIFSNKVTDYADSVKGRFTISRDNAKKTVYLQMSSLTPTDTAVYYCHDQEISWGQGTQVTVSS
B24: LCP0088 (VHH, not shown: small tags and cut ends)
VHH: EVQLVESGGGLVQAGGSLRLSCTASGRTISTTVMGWFRQAPGKEREFVAAVHWGDGNTVYADSVKGRFTISRDDAKNTVYLQLNYLKPEDTSVYYCAARPPTYVGTSRNSRSYDYWGQGTQVTVSS
B25: LCP0128 (VHH, not shown: small tags and cut ends)
VHH: B24 VHH with G56E, N57S, D74N, L83M, S92A, N109S, S112A
B26: LCP0086 (VHH, not shown: small tags and cut ends)
VHH: EVQLVESGGGLVQAGESLRLSCAASGSISAINAMGWYRQAPGKQREFVADITRAGVSDYADAVKGRFTISRDNAKNTFYLQMNDLKPEDTAVYYCDALLIAGGVYWGQGTQVTVSS
B27: LCP0309 (VHH, not shown: small tags and cut ends)
VHH: EVQLVESGGGLVQAGGSLRLSCAASGRTYSSYVIGWFRQAPGKEREFVASIRWAGGDSHYQESVKGRSTISKDNARNTVYLQMNSLKPEDTAVYYCAGAAPVPGQSYEWSSWGQGTQVTVSS
B28: LCP0313 (VHH, not shown: small tags and cut ends)
VHH: B27 VHH with S30G, Q61G, E62D, S63P, V64L, R76K, T91A, Q105S, S110T, S111N
B29: LCP0317 (VHH, not shown: small tags and cut ends)
VHH: EVQLVESGGGLVQAGGSLRLSCAASGSIFSINAMAWYRQAQGKQRELVADITKNDITDYADSVKGRFTIARDNAKNTVDLQMNSLKPEDTAVYYCTAALSRHPYRSWGQGTQVTVSS
B30: LCP0139 (VHH, not shown: small tags and cut ends)
VHH: EVQLVESGGGLVQAGESLRLSCAASGRTSDLYVVGWFRQTPGKEREFVAGIAWTGDASYYADSVEGRFTIARDNAENRIDLQMTSLKPEDTAVYYCAADSRARFERQRYNDMNYWGQGTQVTVSS
B31: LCP0113 (VHH, not shown: small tags and cut ends)
VHH: EVQLVESGGGLVQAGDSLTLSCAASGRPFSSLTMGWFRQAPGKGREFVATTSWSGDIKYYADFVKGRFTISRDNAKNMVYLQMNSLKPEDTAVYYCAATLLRTWSRQTNEYEYWGQGTQVTVSS
B32: LCP0298 (VHH, not shown: small tags and cut ends)
VHH: EVQLVESGGGVVQPGGSLRLSCVVSGSRFSLDTVGWHHQAPGKLRELVARIRDDGDTMYVASVKGRFIISRDDAKNTVYLQMNSLKPEDTGVYYCYFSRNGAWGQGTQVTVSS

Target: T1, human complement protein C5 (human, UniProt P01031 19-1676)
T1 construct: Native C5 is a two-chain protein made from one precursor; also called hC5; human C5
Test: BLI, VHH-His on anti-penta-His tips, 50 nM C5

Row | binding | Binder
1 | binds | B1
2 | binds | B2
3 | binds | B3
4 | binds | B4
5 | binds | B5
6 | binds | B6
7 | binds | B7
8 | binds | B8
9 | binds | B9
10 | binds | B10
11 | binds | B11
12 | binds | B12
13 | binds | B13
14 | binds | B14
15 | binds | B15
16 | binds | B16

Row | binding | Binder
17 | binds | B17
18 | binds | B18
19 | binds | B19
20 | binds | B20
21 | binds | B21
22 | binds | B22
23 | binds | B23
24 | binds | B24
25 | binds | B25
26 | binds | B26
27 | binds | B27
28 | binds | B28
29 | binds | B29
30 | binds | B30
31 | binds | B31
32 | binds | B32

Target: cynomolgus monkey (cyno) complement protein C5 (cynomolgus monkey)
Test: BLI, VHH-His on anti-penta-His tips, 50 nM C5

Row | binding | Binder
33 | binds | B1
34 | binds | B2
35 | binds | B3
36 | binds | B4
37 | binds | B9
38 | binds | B11
39 | binds | B13
40 | binds | B16
41 | binds | B17
42 | binds | B18
43 | binds | B20
44 | binds | B21
45 | binds | B24
46 | binds | B27
47 | binds | B28
48 | binds | B29
49 | binds | B32
